Experimental data from doi:10.1101/2021.08.27.457973.
No constants are given. Whether binding was seen depends on the method and setting. Binding seen in cells or lysates may run through a third protein. Some entries that bind do so weakly or less than the wild type. Where a sequence is shown, tags or fusion partners need not be part of it.

Legend:
Assay in all cases: co-IP
STK11IP-GFP (mouse) = target: T1, STK11IP-GFP (mouse) (UniProt Q3TAA7)
T1 sequence: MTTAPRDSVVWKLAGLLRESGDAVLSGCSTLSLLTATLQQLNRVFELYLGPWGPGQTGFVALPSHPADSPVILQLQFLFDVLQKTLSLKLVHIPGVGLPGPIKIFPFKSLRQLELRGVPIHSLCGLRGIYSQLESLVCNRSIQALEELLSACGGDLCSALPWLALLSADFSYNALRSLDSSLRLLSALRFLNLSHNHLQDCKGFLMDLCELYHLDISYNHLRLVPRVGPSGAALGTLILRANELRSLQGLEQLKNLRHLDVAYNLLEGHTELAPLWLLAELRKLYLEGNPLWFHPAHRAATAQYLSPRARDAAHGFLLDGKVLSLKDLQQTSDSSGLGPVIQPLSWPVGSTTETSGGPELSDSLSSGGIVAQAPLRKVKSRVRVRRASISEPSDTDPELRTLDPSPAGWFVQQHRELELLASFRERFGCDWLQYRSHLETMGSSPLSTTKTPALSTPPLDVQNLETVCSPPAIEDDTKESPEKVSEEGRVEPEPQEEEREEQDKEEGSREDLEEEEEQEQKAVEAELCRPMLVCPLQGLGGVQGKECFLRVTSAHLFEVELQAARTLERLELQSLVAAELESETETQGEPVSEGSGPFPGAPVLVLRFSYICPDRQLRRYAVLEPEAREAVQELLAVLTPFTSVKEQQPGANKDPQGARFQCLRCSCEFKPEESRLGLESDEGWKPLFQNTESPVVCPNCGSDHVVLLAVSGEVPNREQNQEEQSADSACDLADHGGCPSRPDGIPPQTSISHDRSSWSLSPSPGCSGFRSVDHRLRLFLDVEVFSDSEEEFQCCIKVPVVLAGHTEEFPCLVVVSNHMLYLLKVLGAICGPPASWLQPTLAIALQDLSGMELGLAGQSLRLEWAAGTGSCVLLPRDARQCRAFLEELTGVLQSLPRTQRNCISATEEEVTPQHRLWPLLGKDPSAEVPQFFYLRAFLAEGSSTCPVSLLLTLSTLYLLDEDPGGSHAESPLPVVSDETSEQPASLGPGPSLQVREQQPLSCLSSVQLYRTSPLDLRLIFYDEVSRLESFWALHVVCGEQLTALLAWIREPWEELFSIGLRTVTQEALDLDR

GFP-TMEM192^ΔN40 (human) = target: T2, GFP-TMEM192^ΔN40 (human) (UniProt Q8IY95)
T2 sequence: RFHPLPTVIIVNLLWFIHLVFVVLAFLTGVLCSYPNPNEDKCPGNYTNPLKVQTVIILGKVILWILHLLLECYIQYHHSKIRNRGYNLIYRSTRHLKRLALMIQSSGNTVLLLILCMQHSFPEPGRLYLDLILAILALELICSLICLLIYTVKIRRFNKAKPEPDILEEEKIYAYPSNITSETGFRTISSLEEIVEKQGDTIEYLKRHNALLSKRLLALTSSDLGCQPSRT

TMEM192-GFP (human) = target: T3, TMEM192-GFP (human) (UniProt Q8IY95)
T3 sequence: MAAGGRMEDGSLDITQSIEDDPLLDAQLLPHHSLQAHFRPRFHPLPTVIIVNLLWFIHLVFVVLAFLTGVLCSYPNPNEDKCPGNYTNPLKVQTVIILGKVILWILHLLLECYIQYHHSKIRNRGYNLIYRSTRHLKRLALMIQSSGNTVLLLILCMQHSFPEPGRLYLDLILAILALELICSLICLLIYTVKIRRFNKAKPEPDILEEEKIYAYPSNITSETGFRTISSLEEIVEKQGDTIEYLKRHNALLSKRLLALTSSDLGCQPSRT

TMEM192^ΔC34-GFP (human) = target: T4, TMEM192^ΔC34-GFP (human) (UniProt Q8IY95)
T4 sequence: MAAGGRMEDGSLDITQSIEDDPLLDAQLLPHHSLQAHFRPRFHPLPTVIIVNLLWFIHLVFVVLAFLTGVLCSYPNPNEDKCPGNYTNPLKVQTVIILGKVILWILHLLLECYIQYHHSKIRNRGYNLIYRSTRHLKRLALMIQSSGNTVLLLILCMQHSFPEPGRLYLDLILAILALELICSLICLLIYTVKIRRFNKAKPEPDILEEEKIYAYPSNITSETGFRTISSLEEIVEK

TMEM192^ΔC73-GFP (human) = target: T5, TMEM192^ΔC73-GFP (human) (UniProt Q8IY95)
T5 sequence: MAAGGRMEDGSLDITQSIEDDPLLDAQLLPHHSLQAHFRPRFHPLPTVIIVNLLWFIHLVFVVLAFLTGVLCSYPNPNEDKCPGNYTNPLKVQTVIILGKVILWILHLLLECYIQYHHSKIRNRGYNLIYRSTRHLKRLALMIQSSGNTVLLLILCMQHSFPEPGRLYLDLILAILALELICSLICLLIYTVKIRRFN

B1: TMEM192-HA (protein, UniProt Q8IY95 1-271)
chain: T3 sequence
binding (STK11IP-GFP (mouse)): binds

B2: STK11IP-HA (protein, UniProt Q3TAA7 1-1072)
chain: T1 sequence
binding (GFP-TMEM192^ΔN40 (human)): binds weakly | binding (TMEM192-GFP (human)): binds | binding (TMEM192^ΔC34-GFP (human)): no binding | binding (TMEM192^ΔC73-GFP (human)): no binding

B3: STK11IP^1-600-HA (domain or fragment, UniProt Q3TAA7 1-600)
chain: MTTAPRDSVVWKLAGLLRESGDAVLSGCSTLSLLTATLQQLNRVFELYLGPWGPGQTGFVALPSHPADSPVILQLQFLFDVLQKTLSLKLVHIPGVGLPGPIKIFPFKSLRQLELRGVPIHSLCGLRGIYSQLESLVCNRSIQALEELLSACGGDLCSALPWLALLSADFSYNALRSLDSSLRLLSALRFLNLSHNHLQDCKGFLMDLCELYHLDISYNHLRLVPRVGPSGAALGTLILRANELRSLQGLEQLKNLRHLDVAYNLLEGHTELAPLWLLAELRKLYLEGNPLWFHPAHRAATAQYLSPRARDAAHGFLLDGKVLSLKDLQQTSDSSGLGPVIQPLSWPVGSTTETSGGPELSDSLSSGGIVAQAPLRKVKSRVRVRRASISEPSDTDPELRTLDPSPAGWFVQQHRELELLASFRERFGCDWLQYRSHLETMGSSPLSTTKTPALSTPPLDVQNLETVCSPPAIEDDTKESPEKVSEEGRVEPEPQEEEREEQDKEEGSREDLEEEEEQEQKAVEAELCRPMLVCPLQGLGGVQGKECFLRVTSAHLFEVELQAARTLERLELQSLVAAELESETETQGEPVSEGSGPFPG
binding (TMEM192-GFP (human)): binds

B4: HA-STK11IP^472-1072 (domain or fragment, UniProt Q3TAA7 472-1072)
chain: AIEDDTKESPEKVSEEGRVEPEPQEEEREEQDKEEGSREDLEEEEEQEQKAVEAELCRPMLVCPLQGLGGVQGKECFLRVTSAHLFEVELQAARTLERLELQSLVAAELESETETQGEPVSEGSGPFPGAPVLVLRFSYICPDRQLRRYAVLEPEAREAVQELLAVLTPFTSVKEQQPGANKDPQGARFQCLRCSCEFKPEESRLGLESDEGWKPLFQNTESPVVCPNCGSDHVVLLAVSGEVPNREQNQEEQSADSACDLADHGGCPSRPDGIPPQTSISHDRSSWSLSPSPGCSGFRSVDHRLRLFLDVEVFSDSEEEFQCCIKVPVVLAGHTEEFPCLVVVSNHMLYLLKVLGAICGPPASWLQPTLAIALQDLSGMELGLAGQSLRLEWAAGTGSCVLLPRDARQCRAFLEELTGVLQSLPRTQRNCISATEEEVTPQHRLWPLLGKDPSAEVPQFFYLRAFLAEGSSTCPVSLLLTLSTLYLLDEDPGGSHAESPLPVVSDETSEQPASLGPGPSLQVREQQPLSCLSSVQLYRTSPLDLRLIFYDEVSRLESFWALHVVCGEQLTALLAWIREPWEELFSIGLRTVTQEALDLDR
binding (TMEM192-GFP (human)): no binding
